Results published in PubChem BioAssay AID2551 (National Center for Advancing Translational Sciences (NCATS), 2010).
About 17,000 (5.5%) of roughly 310,000 compounds were called active. The inconclusive results got no clear call from the source; some entries with a clear call stand among them for comparison. Calls come from the whole dose curve; as a rule, active = well fitted inhibition curve with a large enough effect; inconclusive = small, poorly fitted or top-dose-only effect, or effect the other way; inactive = no such curve, though single readings can be large or run the other way. Where the call is inconclusive, the potency comes from a doubtful curve fit.

Protein sequences, listed by entry. Tags and fused reporters are not part of them. Lines headed by an entry give the natural chain unless they say otherwise; changes in a name come on top.
UniProt P51450: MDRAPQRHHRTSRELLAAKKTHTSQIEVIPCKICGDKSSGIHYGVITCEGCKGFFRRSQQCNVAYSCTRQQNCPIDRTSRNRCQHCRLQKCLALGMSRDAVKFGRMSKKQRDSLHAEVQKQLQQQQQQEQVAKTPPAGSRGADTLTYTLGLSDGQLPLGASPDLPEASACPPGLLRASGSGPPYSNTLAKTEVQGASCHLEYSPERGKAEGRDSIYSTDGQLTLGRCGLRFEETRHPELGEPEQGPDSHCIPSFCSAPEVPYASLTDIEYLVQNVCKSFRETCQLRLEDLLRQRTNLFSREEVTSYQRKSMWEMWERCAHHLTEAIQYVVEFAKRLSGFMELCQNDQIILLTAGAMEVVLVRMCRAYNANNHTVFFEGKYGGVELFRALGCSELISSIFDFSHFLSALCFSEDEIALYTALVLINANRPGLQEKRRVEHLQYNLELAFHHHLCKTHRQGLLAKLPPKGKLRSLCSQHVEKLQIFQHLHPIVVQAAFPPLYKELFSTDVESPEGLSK

Each compound was assayed against Nuclear receptor ROR-gamma (Mus musculus) (UniProt P51450) (assay: qHTS for inhibitors of ROR gamma transcriptional activity). Settings: Drosophila S2 Gal4-RORgamma UAS-luciferase reporter, 20 h; series mostly up to 53.6 µM.
In short: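 Compounds are pin-transferred onto Drosophila Schneider cells expressing a copper-inducible Gal4–ROR gamma transactivation domain fusion. After 1 hr, copper sulfate is added to 700 uM final; luciferase is read 20 hr later.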
Note: nearly all actives have a fitted effect of over 60% in size.
Potency is the fitted concentration of half-maximal effect.

Potency, active:
CCOC(=O)N1CCN(Cc2ccc(O)c3ncccc23)CC1 2.51 µM
C(=N\Nc1nc2ccccc2[nH]1)/c1c[nH]c2ccccc12 3.55 µM
Cc1ccccc1C(=O)NC(=S)NCCC1=CCCCC1 3.98 µM
COC(=O)Cc1cc(=O)n2[nH]c(C)c(-c3ccccc3)c2n1 3.55 µM
O=C(NNc1nc2c(F)cccc2s1)C1=COCCO1 11.2 µM
CCc1cc(-c2[nH]ncc2-c2ccc([N+](=O)[O-])cc2)c(O)cc1OC 12.6 µM
COc1cccc(NC(=O)C(OC(=O)c2ccc([N+](=O)[O-])o2)c2ccccc2)c1 (centres undefined) 14.1 µM
CC(/C=C/c1ccccc1F)=N\NC(=O)c1ccccc1 3.16 µM
Cc1cccc(NCc2n[nH]c(=S)n2-c2ccccc2)c1 10 µM

Potency, inconclusive:
O=c1[nH]c(C2CCN(S(=O)(=O)c3ccc(F)cc3)CC2)nc2c1nnn2Cc1ccc2c(c1)OCCO2 14.1 µM [activator, single point]
Cc1ccc(C)c(N2CCN(C(=O)C3CCN(S(=O)(=O)c4c(C)noc4C)CC3)CC2)c1 35.5 µM [activator, single point]
Cc1ccc(C(=O)Nc2ccc3cn[nH]c3c2)cc1S(=O)(=O)N1CCOCC1 2.24 µM [activator, partial curve, poor fit]
CC(C)Oc1ccc(C2CC(=O)N(c3cccc(Br)c3)C2=O)cc1 (centres undefined) 22.4 µM [activator, single point]
CCc1ccccc1NC(=O)Cn1nc(C(F)(F)F)c2c1CCC2 1.78 µM [inhibitor, single point]
CC1CCCC(C)N1C(=O)CN1CCN(c2nc(-c3ccc(F)cc3)cs2)CC1 (centres undefined) 11.2 µM [activator, partial curve, poor fit]
Cc1ccc(O)c(C=Nc2cc(C)ccc2O)c1 28.2 µM [inhibitor, single point]
CC(C)(C)OC(=O)CNC(=O)c1[nH]cnc1C(=O)N[C@@H](Cc1ccccc1)C(=O)OC(C)(C)C 14.1 µM [inhibitor, partial curve, poor fit]
COc1ccc(NC(=O)CN(C2CCCCC2)S(C)(=O)=O)cc1Cl 25.1 µM [activator, single point]
N#CCC(=O)N/N=C\c1cccc(OC/C=C/c2ccccc2)c1 1.12 µM [activator, partial curve, poor fit]
COc1ccc(NC(=O)c2cccnc2NCCc2ccccc2)cc1 15.8 µM [activator, partial curve]
Cc1cccc(Oc2ncc(-c3ccc(Cl)cc3)cn2)c1C 2.82 µM [activator, full curve]
Cc1c(C(=O)NCCc2ccccc2)oc2ccccc12 17.8 µM [inhibitor, single point]
CCOc1cccc(N(C(=O)c2ccco2)C(C(=O)NC2CCCC2)c2cccnc2)c1 (centres undefined) 15.8 µM [activator, single point]
CS(=O)(=O)c1ccc2nc(NC(=O)C3CCCCC3)sc2c1 14.1 µM [activator, single point]
CS(=O)(=O)N(CC(=O)N1CCN(c2ccccc2F)CC1)c1cc(C(F)(F)F)ccc1Cl 10 µM [activator, partial curve]
Cc1cccc(N2CCN(C(=O)C3CCN(c4ncnc5c4nc4n5CCCCC4)CC3)CC2C)c1 (centres undefined) 0.631 µM [inhibitor, full curve, poor fit]
O=C1CCCC2=C1C(c1cccs1)n1nc(SCc3ccccc3F)nc1N2 (centres undefined) 12.6 µM [activator, partial curve]
CC(=O)Nc1cccc(Oc2ccc(-c3noc(C)n3)cc2)c1 0.631 µM [activator, full curve, poor fit]
NC(=O)[C@H]1CC2(CC(c3cccc(NC(=O)COc4ccc(Cl)cc4)c3)=NO2)CN1C(=O)CC(c1ccccc1)c1ccccc1 (some centres undefined) 12.6 µM [activator, partial curve, poor fit]
Cc1cc(NC(=O)COc2ccc(Cl)cc2Cl)n(CCC#N)n1 11.2 µM [activator, partial curve]
CCOC(=O)N1CCN(C(=O)c2ccc(Cn3c(=S)[nH]c4ccc(Br)cc4c3=O)cc2)CC1 31.6 µM [inhibitor, single point]
CCN(CC)C(=S)SCC(=O)c1ccc(F)cc1 11.2 µM [inhibitor, single point]
CC(C)Cc1ccc(/C=C/C(=O)NC2CC2)cc1 35.5 µM [inhibitor, single point]
COc1cccc(OC)c1OCCCOc1cccc2cccnc12 5.01 µM [inhibitor, single point]
CCC(=O)Nc1ccc(C2C(=O)c3ccccc3C2=O)cc1 8.91 µM [inhibitor, partial curve]
C(=N\Nc1nc(-c2cccnc2)nc2ccccc12)/c1ccccc1 20 µM [inhibitor, single point]
COc1ccc(C2c3ccsc3CCN2C(C)=O)cc1 (centres undefined) 14.1 µM [activator, single point]

As a working copy, three of the compounds above:
Potency, inconclusive:
N#CCC(=O)N/N=C\c1cccc(OC/C=C/c2ccccc2)c1 1.12 µM [activator, partial curve, poor fit]
COc1ccc(NC(=O)c2cccnc2NCCc2ccccc2)cc1 15.8 µM [activator, partial curve]
Cc1cccc(Oc2ncc(-c3ccc(Cl)cc3)cn2)c1C 2.82 µM [activator, full curve]

Following part.

Potency, inactive:
Cc1c(C(=O)N(C)Cc2ccccc2)oc2c(Cl)cccc12
O=C(c1ccc([N+](=O)[O-])cc1)N1CCSC1c1cccc(Cl)c1 (centres undefined)
COCC(=O)Nc1c(C(=O)Nc2ccc3c(c2)OCO3)oc2ccccc12
CCn1c(C)nc([N+](=O)[O-])c1Sc1ccc(F)cc1
COc1ccc(/C=N/NC(=O)c2cccc(C(=O)N/N=C/c3ccc(OC)cc3)n2)cc1
COc1ncc2nc(-c3ccc(F)cc3)c(=O)n(C[C@H]3CCCO3)c2n1
Cc1ccc2c(c1)C1CC(C)(O2)N(c2cccc(C(=O)NC3CCN(Cc4ccccc4)CC3)c2)C(=O)N1 (centres undefined)
